These are yes or no findings as the source states them, for the method shown. Some results given as binding are weak or reduced against the parent protein; the word gives no strength.
Tests used:
[1] = biological target: T1, P40 biotin peptide (MS1891.2) (human); experiment: ELISA on P40 biotin peptide MS1891.2
T1 sequence (peptide, C-terminal amide (-NH2); biotin (position not stated)): MLYLENNAQTQFSEPQC

[2] = biological target: T1, P40 biotin peptide (MS1891.2) (human); experiment: ELISA on P40 biotin peptide MS1891.2, in duplicate

binding [1]: binds
binding [2]: binds
B1: recombinant rabbit monoclonal anti-human p40 antibody clone 15F11 (antibody, V domains shown)
VH: QSVEESGGRLVKPDESLTLTCTVSGFSLSSYGVTWVRQAPGKGLEWIGYISHITTTYYASWAKGRFTISKTSPTTVDLKMTSLTTEDTATYFCCRGQYGSGIIYALWGPGTLVTISS
VL: AQVLTQTPSPVSAAVGGTVTINCQASQSVYNNKNLAWYQQKPGQPPKLLIYYASTLASGVPSRFSGSGSGTQFTLTISGVQCDDAATYYCHGEFSCDSGDCSAFGGGTEVVVK

From patent publication US20230331865A1
